Experimental data reported in PubChem BioAssay AID330 (DTP/NCI, 2004).
The list is a part of this screen's results and no random one: it covers a few groups of compounds. Other doses and runs of a compound may be missing. T/C: endpoint of the treated group in % of that of the vehicle group. Some entries give survivors of the animals treated and no T/C: the source holds a T/C of zero for them, seemingly a mark for toxic or unscored doses. Some doses without a T/C left all or most animals alive at the check, yet need not have been tolerated: the source hardly ever lists a survival T/C far under the control, and the zero likely stands for such cases as well. Survivors were counted at the toxicity check, usually on the fifth day, unless a day is given; later deaths do not show. Schedule codes are those of the source, read here as Q, the interval in days (D) or hours (H), X, the number of doses. Where survival is the endpoint, the PubChem record calls one and a half times the control and up active, and a quarter to a half above the control has no call in these data; cut-offs in other NCI protocols can differ. Counts like (3×) give the number of equal values in this list. Some entries were tested several times; their values stand side by side, smallest first. Some T/C values are marked as having no survivor count here; that says nothing about deaths at the dose. Some T/C values carry the count of animals alive at the toxicity check (mostly the fifth day); without a count or a note in brackets, all were alive then. Some complexes appear as separate parts, the way the source draws them; their charges need not add up.

Tested on: P388 leukemia ip, CD2F1 mice, survival T/C
Test: NCI In Vivo Anticancer Drug Screen. Data for tumor model P388 Leukemia (intraperitoneal) in CD2F1 (CDF1) mice
Conditions: T/C endpoint: median survival time, higher T/C = longer survival
[1] = dose: 50.0 mg/kg/injection, schedule: Q01DX009 (ip), vehicle: saline with Tween-80
[2] = dose: 100.0 mg/kg/injection, schedule: Q01DX009 (ip), vehicle: saline with Tween-80
[3] = dose: 200.0 mg/kg/injection, schedule: Q01DX009 (ip), vehicle: saline with Tween-80
[4] = dose: 25.0 mg/kg/injection, schedule: Q04DX003 (ip), vehicle: Klucel (hydroxypropylcellulose) (HPC)
[5] = dose: 100.0 mg/kg/injection, schedule: Q04DX003 (ip), vehicle: Klucel (hydroxypropylcellulose) (HPC)
[6] = dose: 200.0 mg/kg/injection, schedule: Q04DX003 (ip), vehicle: Klucel (hydroxypropylcellulose) (HPC)
[7] = dose: 400.0 mg/kg/injection, schedule: Q04DX003 (ip), vehicle: Klucel (hydroxypropylcellulose) (HPC)
[8] = dose: 50.0 mg/kg/injection, schedule: Q01DX009 (ip), vehicle: saline

For `CCN(CCCl)/N=N/c1nc2nc[nH]c(=O)c2[nH]1`, the T/C (dose: 50.0 mg/kg/injection, schedule: Q01DX005 (ip), vehicle: Klucel (hydroxypropylcellulose) (HPC)) was 100 % of control, the T/C (dose: 100.0 mg/kg/injection, schedule: Q01DX005 (ip), vehicle: Klucel (hydroxypropylcellulose) (HPC)) was 108 % of control and the T/C (dose: 200.0 mg/kg/injection, schedule: Q01DX005 (ip), vehicle: Klucel (hydroxypropylcellulose) (HPC)) was 105 % of control.

With `COc1ccc(C2=CCN(c3ccc(C)cc3)P(=O)(Cl)O2)cc1` (stereo not drawn) the T/C (dose: 25.0 mg/kg/injection, schedule: Q01DX005 (ip), vehicle: Klucel (hydroxypropylcellulose) (HPC), evaluated on day 20) was 115 % of control, the T/C (dose: 25.0 mg/kg/injection, schedule: Q01DX005 (ip), vehicle: Klucel (hydroxypropylcellulose) (HPC), evaluated on day 30) was 105 % of control and the T/C (dose: 50.0 mg/kg/injection, schedule: Q01DX005 (ip), vehicle: Klucel (hydroxypropylcellulose) (HPC), evaluated on day 20) was 110 % of control. The T/C (dose: 50.0 mg/kg/injection, schedule: Q01DX005 (ip), vehicle: Klucel (hydroxypropylcellulose) (HPC), evaluated on day 30) was 108 % of control (2×), the T/C (dose: 100.0 mg/kg/injection, schedule: Q01DX005 (ip), vehicle: Klucel (hydroxypropylcellulose) (HPC), evaluated on day 20) was 111 % of control and the T/C (dose: 100.0 mg/kg/injection, schedule: Q01DX005 (ip), vehicle: Klucel (hydroxypropylcellulose) (HPC), evaluated on day 30) was 107 and 117 % of control. For the same compound, the T/C (dose: 200.0 mg/kg/injection, schedule: Q01DX005 (ip), vehicle: Klucel (hydroxypropylcellulose) (HPC), evaluated on day 20) was 112 % of control [5 of 6 alive] and the T/C (dose: 200.0 mg/kg/injection, schedule: Q01DX005 (ip), vehicle: Klucel (hydroxypropylcellulose) (HPC), evaluated on day 30) was 115 and 127 % of control.

In the case of `O=[N+]([O-])c1cc([N+](=O)[O-])c(-c2cc([N+](=O)[O-])c(-c3c([N+](=O)[O-])cc([N+](=O)[O-])cc3[N+](=O)[O-])s2)c([N+](=O)[O-])c1`, the T/C [1] is reported as 115 % of control, the T/C [2] is reported as 90 % of control [5 of 6 alive] and the T/C [3] is reported as 100 % of control.

For `O=C(OCCN1CCCC1)N(CCCl)CCCl`, the T/C (dose: 1.56 mg/kg/injection, schedule: Q01DX009 (ip), vehicle: distilled water + Tween-80) was 100 % of control, the T/C (dose: 3.13 mg/kg/injection, schedule: Q01DX009 (ip), vehicle: distilled water + Tween-80) was 98 % of control and the T/C (dose: 6.25 mg/kg/injection, schedule: Q01DX009 (ip), vehicle: distilled water + Tween-80) was 100 % of control. The T/C (dose: 12.5 mg/kg/injection, schedule: Q01DX009 (ip), vehicle: distilled water + Tween-80) was 100 % of control and the T/C (dose: 25.0 mg/kg/injection, schedule: Q01DX009 (ip), vehicle: distilled water + Tween-80) was 107 % of control.

In the case of `N/C=N/P(=O)(Oc1ccccc1)Oc1ccccc1`, the T/C [4] is reported as 102 % of control, the T/C (dose: 50.0 mg/kg/injection, schedule: Q04DX003 (ip), vehicle: Klucel (hydroxypropylcellulose) (HPC)) is reported as 100 % of control and the survivor count [5] is reported as 1 of 6.

In the case of `Cc1ccc(O[S+](C)(=O)N(C)C)cc1.F[P-](F)(F)(F)(F)F` (stereo not drawn), the T/C [1] is reported as 107 % of control, the T/C [2] is reported as 110 % of control and the T/C [3] is reported as 94 % of control [5 of 6 alive].

With `Nc1ccc(N(CCCl)CCCl)cc1` the T/C (dose: 0.05 mg/kg/injection, schedule: Q01DX009 (ip), vehicle: saline) was 116 % of control, the T/C (dose: 0.07 mg/kg/injection, schedule: Q01DX009 (ip), vehicle: saline) was 115 % of control and the T/C (dose: 0.11 mg/kg/injection, schedule: Q01DX009 (ip), vehicle: saline) was 113 % of control. The T/C (dose: 0.16 mg/kg/injection, schedule: Q01DX009 (ip), vehicle: saline) was 133 % of control, the T/C (dose: 1.5 micrograms/kg/injection, schedule: Q01DX009 (ip), vehicle: saline) was 102 % of control and the T/C (dose: 3.1 micrograms/kg/injection, schedule: Q01DX009 (ip), vehicle: saline) was 99 % of control. For the same compound, the T/C (dose: 6.2 micrograms/kg/injection, schedule: Q01DX009 (ip), vehicle: saline) was 95 % of control, the T/C (dose: 12.5 micrograms/kg/injection, schedule: Q01DX009 (ip), vehicle: saline) was 99 % of control and the T/C (dose: 25.0 micrograms/kg/injection, schedule: Q01DX009 (ip), vehicle: saline) was 99 % of control. For the same compound, the T/C (dose: 50.0 micrograms/kg/injection, schedule: Q01DX009 (ip), vehicle: saline) was 91 % of control.

In the case of `O=C1C=C(N(CCCl)CCCl)C(=O)C=C1Cl`, the T/C [5] is reported as 123 % of control [5 of 6 alive], the T/C [6] is reported as 136 % of control and the T/C [7] is reported as 144 % of control.

For `CC1(C)NC(C)(C)C(Br)C(=O)C1Br` (stereo not drawn), the T/C [8] was 103 % of control [5 of 6 alive], the survivor count [8] was 5 of 6 and the survivor count (dose: 50.0 mg/kg/injection, schedule: Q01DX009 (ip), vehicle: suspension in saline) was 3 of 6. The T/C (dose: 100.0 mg/kg/injection, schedule: Q01DX009 (ip), vehicle: saline) was 106 [5 of 6 alive] and 110 % of control, the T/C (dose: 100.0 mg/kg/injection, schedule: Q01DX009 (ip), vehicle: suspension in saline) was 103 % of control and the T/C (dose: 200.0 mg/kg/injection, schedule: Q01DX009 (ip), vehicle: saline) was 102 and 104 % of control. For the same compound, the T/C (dose: 200.0 mg/kg/injection, schedule: Q01DX009 (ip), vehicle: suspension in saline) was 87 % of control.

In the case of `O[C@H](CNCCCl)[C@@H](O)CNCCCl`, the T/C (dose: 0.29 mg/kg/injection, schedule: Q01DX009 (ip), vehicle: saline) is reported as 122 % of control, the T/C (dose: 0.44 mg/kg/injection, schedule: Q01DX009 (ip), vehicle: saline) is reported as 127 % of control and the T/C (dose: 0.66 mg/kg/injection, schedule: Q01DX009 (ip), vehicle: saline) is reported as 136 % of control. For the same compound, the T/C (dose: 0.88 mg/kg/injection, schedule: Q04DX003 (ip), vehicle: saline) was 119 % of control, the T/C (dose: 1.0 mg/kg/injection, schedule: Q01DX009 (ip), vehicle: saline) was 150 % of control and the T/C (dose: 1.32 mg/kg/injection, schedule: Q04DX003 (ip), vehicle: saline) was 121 % of control. The T/C (dose: 1.4 mg/kg/injection, schedule: Q01DX009 (ip), vehicle: saline) was 168 % of control, the T/C (dose: 2.0 mg/kg/injection, schedule: Q04DX003 (ip), vehicle: saline) was 119 % of control and the T/C (dose: 2.2 mg/kg/injection, schedule: Q01DX009 (ip), vehicle: saline) was 172 % of control. The T/C (dose: 3.0 mg/kg/injection, schedule: Q04DX003 (ip), vehicle: saline) was 140 % of control, the T/C (dose: 3.3 mg/kg/injection, schedule: Q01DX009 (ip), vehicle: saline) was 190 % of control and the T/C (dose: 5.0 mg/kg/injection, schedule: Q01DX009 (ip), vehicle: saline) was 200 % of control. For the same compound, the T/C (dose: 16.5 mg/kg/injection, schedule: Q01DX009 (ip), vehicle: saline) was 225 % of control, the T/C (dose: 25.0 mg/kg/injection, schedule: Q01DX009 (ip), vehicle: saline) was 120 % of control and the T/C (dose: 37.5 mg/kg/injection, schedule: Q01DX009 (ip), vehicle: saline) was 90 % of control.

For `CC(C)OP(C)(=O)O.[Tm]`, the T/C (dose: 12.5 mg/kg/injection, schedule: Q01DX009 (ip), vehicle: saline with Tween-80) was 97 % of control [survivor count not shown], the T/C (dose: 25.0 mg/kg/injection, schedule: Q01DX009 (ip), vehicle: saline with Tween-80) was 99 % of control [survivor count not shown] and the T/C [1] was 90 % of control [survivor count not shown]. The T/C [3] was 93 % of control [survivor count not shown].

In the case of `CCCCNC(=NC)NP(=O)(NCCCC)NCCCC`, the T/C (dose: 6.25 mg/kg/injection, schedule: Q04DX003 (ip), vehicle: Klucel (hydroxypropylcellulose) (HPC)) is reported as 107 % of control, the T/C (dose: 12.5 mg/kg/injection, schedule: Q04DX003 (ip), vehicle: Klucel (hydroxypropylcellulose) (HPC)) is reported as 97 % of control and the T/C [4] is reported as 108 % of control. For the same compound, the survivor count [5] was 3 of 6, the survivor count [6] was 2 of 6 and the survivor count [7] was 0 of 6.

In the case of `CN([PH+](F)F)[PH+](F)F.CN([PH+](F)F)[PH+](F)F.CN([PH+](F)F)[PH+](F)F.[C-]#[O+].[C-]#[O+].[Co].[Co]`, the T/C (dose: 100.0 mg/kg/injection, schedule: Q01DX001 (ip), vehicle: Klucel (hydroxypropylcellulose) (HPC)) is reported as 107 % of control, the T/C (dose: 200.0 mg/kg/injection, schedule: Q01DX001 (ip), vehicle: Klucel (hydroxypropylcellulose) (HPC)) is reported as 99 % of control and the T/C (dose: 400.0 mg/kg/injection, schedule: Q01DX001 (ip), vehicle: Klucel (hydroxypropylcellulose) (HPC)) is reported as 95 % of control.
